# From the supplement of paper PMC12067093, “Discovery and optimisation of a covalent ligand for TRIM25 and its application to targeted protein ubiquitination” (Chemical Science, 2025)
# The chains behind the UniProt entries cited, without tags or fusion partners. Where a name states a change or a piece, a line headed by the entry shows the natural chain unless it says otherwise.
# UniProt O95251, whole entry: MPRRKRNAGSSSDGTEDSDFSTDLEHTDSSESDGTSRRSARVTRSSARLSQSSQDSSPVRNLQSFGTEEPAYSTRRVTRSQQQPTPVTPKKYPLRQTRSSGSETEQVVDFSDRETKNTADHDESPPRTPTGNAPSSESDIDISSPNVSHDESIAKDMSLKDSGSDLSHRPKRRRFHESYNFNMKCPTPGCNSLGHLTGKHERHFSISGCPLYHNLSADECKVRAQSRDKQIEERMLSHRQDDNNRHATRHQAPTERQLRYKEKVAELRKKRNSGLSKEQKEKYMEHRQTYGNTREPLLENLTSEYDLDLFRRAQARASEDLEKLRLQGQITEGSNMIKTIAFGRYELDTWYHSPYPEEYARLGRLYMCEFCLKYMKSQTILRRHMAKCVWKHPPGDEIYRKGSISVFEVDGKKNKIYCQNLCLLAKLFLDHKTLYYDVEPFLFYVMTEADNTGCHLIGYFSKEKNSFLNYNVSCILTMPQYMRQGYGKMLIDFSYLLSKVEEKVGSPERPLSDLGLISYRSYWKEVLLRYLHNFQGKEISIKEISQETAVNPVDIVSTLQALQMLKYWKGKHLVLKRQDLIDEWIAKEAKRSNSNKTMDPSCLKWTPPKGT
# UniProt O94819: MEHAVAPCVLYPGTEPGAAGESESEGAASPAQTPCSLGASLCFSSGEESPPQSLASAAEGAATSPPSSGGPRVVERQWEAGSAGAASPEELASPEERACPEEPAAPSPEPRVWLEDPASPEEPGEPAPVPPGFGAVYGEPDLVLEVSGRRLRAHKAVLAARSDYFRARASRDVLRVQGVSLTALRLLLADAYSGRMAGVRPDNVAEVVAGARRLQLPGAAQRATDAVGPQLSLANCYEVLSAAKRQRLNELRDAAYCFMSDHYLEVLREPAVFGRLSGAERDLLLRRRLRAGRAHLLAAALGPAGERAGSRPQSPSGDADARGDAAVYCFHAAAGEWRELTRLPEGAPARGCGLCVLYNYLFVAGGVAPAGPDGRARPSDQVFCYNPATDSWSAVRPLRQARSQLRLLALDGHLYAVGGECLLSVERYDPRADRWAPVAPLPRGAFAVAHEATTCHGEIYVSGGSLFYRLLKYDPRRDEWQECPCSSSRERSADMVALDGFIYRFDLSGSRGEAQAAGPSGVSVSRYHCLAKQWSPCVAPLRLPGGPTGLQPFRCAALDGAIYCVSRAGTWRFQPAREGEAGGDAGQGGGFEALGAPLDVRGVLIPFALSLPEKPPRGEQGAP
# UniProt Q9Y6Y0: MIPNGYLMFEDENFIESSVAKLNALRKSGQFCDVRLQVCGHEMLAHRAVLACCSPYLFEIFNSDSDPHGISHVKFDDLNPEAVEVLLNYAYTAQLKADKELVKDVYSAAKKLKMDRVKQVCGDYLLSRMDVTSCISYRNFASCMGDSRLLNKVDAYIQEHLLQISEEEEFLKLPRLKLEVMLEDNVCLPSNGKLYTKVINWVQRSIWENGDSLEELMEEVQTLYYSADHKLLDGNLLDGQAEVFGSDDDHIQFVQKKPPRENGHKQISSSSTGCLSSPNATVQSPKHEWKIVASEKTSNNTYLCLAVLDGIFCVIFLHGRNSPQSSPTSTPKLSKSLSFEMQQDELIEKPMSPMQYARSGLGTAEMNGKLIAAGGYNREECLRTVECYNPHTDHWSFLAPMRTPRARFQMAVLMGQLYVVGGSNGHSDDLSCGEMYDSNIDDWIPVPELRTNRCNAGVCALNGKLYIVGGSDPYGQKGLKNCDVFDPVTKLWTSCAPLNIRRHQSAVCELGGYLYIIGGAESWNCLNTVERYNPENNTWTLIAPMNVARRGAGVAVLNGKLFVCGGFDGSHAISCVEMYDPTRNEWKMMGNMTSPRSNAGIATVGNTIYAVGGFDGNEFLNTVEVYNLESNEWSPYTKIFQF
# UniProt Q9Y4C1: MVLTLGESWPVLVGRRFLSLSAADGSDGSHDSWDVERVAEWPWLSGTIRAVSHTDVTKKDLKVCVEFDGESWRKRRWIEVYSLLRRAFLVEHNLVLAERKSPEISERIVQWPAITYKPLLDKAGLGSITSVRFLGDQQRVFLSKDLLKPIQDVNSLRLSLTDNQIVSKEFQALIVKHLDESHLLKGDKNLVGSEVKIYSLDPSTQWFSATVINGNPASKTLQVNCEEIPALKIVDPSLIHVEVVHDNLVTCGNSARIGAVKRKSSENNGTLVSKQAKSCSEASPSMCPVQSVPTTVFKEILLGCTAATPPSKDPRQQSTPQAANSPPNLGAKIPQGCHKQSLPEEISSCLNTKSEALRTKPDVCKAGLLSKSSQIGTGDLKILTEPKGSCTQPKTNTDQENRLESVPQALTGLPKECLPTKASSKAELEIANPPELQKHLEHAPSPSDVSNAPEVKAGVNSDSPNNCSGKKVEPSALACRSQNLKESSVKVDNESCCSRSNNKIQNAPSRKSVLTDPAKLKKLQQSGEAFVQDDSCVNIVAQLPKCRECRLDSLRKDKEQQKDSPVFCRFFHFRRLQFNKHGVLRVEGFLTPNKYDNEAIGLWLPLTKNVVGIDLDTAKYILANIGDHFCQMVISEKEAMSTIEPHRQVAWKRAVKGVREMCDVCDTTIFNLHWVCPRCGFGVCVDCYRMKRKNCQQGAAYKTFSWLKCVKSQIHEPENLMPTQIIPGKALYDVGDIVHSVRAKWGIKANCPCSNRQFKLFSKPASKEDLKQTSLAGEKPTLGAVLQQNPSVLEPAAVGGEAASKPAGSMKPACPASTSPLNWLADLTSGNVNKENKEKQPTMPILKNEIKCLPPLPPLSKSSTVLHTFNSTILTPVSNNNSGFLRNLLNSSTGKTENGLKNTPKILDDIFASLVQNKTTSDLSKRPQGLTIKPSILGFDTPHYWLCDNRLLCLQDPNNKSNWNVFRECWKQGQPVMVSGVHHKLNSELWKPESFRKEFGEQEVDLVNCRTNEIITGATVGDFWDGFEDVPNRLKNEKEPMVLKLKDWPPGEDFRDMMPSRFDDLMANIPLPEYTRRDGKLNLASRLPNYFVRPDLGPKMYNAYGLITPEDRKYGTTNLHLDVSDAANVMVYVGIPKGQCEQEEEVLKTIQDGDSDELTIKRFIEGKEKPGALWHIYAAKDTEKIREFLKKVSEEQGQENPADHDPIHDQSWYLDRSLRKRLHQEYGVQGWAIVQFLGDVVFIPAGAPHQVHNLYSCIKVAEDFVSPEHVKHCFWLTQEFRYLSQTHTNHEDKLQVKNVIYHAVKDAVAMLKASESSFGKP
# UniProt Q92830, whole entry, looked up: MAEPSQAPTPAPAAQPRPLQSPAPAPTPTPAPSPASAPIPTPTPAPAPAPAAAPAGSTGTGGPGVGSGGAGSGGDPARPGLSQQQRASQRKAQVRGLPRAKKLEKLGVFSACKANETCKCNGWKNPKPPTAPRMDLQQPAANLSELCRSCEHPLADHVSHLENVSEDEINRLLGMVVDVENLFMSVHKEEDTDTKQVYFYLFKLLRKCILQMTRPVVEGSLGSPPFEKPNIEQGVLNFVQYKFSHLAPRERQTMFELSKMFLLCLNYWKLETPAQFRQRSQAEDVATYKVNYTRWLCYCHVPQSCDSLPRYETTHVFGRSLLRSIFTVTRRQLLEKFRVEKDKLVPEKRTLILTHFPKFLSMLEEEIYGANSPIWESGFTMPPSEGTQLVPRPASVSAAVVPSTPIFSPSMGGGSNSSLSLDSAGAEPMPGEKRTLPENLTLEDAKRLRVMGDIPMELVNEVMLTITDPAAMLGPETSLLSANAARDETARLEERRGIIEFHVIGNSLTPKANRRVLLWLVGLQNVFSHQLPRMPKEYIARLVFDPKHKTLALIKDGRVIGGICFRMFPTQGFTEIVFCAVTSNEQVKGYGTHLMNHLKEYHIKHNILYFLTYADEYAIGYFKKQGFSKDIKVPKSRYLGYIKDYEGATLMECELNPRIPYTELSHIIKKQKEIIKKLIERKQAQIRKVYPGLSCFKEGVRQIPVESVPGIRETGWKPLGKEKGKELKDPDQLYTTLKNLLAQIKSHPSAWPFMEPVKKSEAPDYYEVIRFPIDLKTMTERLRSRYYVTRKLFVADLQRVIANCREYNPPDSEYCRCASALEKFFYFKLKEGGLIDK
# UniProt Q8NHM5: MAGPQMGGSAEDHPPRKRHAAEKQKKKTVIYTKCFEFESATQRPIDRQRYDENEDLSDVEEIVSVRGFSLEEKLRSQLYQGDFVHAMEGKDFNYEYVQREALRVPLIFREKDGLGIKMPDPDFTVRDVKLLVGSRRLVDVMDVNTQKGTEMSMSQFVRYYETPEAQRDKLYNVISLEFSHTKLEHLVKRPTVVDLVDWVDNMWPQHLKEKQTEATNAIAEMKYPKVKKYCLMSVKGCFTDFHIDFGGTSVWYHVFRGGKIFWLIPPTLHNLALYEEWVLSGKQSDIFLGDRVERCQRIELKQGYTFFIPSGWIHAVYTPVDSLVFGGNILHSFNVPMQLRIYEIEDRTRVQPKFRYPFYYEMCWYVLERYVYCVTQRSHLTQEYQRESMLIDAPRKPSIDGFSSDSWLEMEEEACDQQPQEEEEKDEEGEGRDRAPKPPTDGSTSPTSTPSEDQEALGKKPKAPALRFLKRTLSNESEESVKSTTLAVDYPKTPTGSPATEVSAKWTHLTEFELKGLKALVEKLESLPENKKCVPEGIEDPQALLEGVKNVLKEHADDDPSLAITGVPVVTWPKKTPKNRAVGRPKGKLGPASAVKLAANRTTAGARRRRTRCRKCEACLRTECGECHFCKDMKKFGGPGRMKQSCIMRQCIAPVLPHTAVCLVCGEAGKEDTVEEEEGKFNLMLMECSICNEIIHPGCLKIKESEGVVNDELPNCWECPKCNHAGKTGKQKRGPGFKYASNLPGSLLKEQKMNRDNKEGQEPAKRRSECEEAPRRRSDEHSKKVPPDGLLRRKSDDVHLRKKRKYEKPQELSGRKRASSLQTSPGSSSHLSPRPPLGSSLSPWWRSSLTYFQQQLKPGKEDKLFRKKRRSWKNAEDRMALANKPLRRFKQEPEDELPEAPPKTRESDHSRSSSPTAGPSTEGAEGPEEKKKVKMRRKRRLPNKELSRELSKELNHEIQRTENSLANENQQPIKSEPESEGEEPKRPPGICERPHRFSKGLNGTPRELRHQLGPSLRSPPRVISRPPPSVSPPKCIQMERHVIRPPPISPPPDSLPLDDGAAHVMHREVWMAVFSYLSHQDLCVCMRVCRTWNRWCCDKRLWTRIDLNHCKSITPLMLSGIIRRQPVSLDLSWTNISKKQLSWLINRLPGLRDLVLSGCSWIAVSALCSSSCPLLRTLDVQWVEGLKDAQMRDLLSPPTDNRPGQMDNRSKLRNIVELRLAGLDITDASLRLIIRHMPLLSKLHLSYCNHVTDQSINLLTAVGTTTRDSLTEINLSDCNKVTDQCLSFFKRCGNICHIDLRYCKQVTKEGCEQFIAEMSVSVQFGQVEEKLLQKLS
# UniProt Q2KHM9: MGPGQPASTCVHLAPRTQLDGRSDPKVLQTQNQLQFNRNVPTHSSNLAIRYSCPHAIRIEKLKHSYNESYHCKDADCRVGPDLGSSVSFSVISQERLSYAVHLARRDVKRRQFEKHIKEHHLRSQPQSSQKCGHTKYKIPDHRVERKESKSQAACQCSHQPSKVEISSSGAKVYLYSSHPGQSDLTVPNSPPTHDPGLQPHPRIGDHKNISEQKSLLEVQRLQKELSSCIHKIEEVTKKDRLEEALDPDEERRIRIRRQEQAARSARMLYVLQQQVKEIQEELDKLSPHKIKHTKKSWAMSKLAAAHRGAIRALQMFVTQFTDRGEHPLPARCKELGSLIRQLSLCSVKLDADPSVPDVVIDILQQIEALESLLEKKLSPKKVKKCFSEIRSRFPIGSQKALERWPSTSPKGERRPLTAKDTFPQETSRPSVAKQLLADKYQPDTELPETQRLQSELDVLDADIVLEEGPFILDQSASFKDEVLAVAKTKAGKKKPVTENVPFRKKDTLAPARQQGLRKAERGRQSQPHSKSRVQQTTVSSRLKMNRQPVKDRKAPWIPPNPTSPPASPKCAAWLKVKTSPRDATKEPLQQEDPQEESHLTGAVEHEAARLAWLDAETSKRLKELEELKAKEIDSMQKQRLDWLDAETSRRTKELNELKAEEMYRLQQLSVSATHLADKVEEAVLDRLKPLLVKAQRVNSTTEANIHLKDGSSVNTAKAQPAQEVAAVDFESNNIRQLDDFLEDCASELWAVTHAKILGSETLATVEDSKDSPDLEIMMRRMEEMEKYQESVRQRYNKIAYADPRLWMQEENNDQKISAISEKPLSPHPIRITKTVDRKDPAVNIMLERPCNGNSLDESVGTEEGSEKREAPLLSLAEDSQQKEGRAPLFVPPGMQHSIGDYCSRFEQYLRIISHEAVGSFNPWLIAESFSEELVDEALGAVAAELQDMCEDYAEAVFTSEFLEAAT
# The list shows a part of the results.
# Compound: Cc1cc(ccc1-c1ccccc1)C(=O)N1CCCN(CC1)C(=O)CCl [compound 10]
# Assay: probe-labelled cysteine peptide fold change vs DMSO (competition) (log2 fold change); higher = less target engagement (more negative = stronger competition)
# Settings: THP-1, incubation time: 4 h
# 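Note: competitive profiling in live THP-1 cells: cysteine peptides tagged with an iodoacetamide desthiobiotin (IA-DTB) probe, intensity after compound treatment relative to DMSO-treated cells.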
Target,probe-labelled cysteine peptide fold change (10 µM),probe-labelled cysteine peptide fold change (50 µM)
KAT8_Q9H7Z6_230_FHLGQCQWR (UniProt Q9H7Z6),-0.109,0.0661
KAT5_Q92993_11_AEVGEIIEGCR (UniProt Q92993),-0.0999,0.275
KIF20B_Q96Q89_1330_NQCSQELDMK (UniProt Q96Q89),0.173,-0.21
KAT7_O95251_474_NSFLNYNVSCILTMPQYMR (UniProt O95251),0.152,0.309
KDM3B_Q7LBC6_295_SASDSGCDPASKK (UniProt Q7LBC6),-0.136,-0.93
ITPR1_Q14643_253_FLTCDEHR (UniProt Q14643),0.0624,0.337
KDM5C_P41229_825_NCLSEAEACVSR (UniProt P41229),0.00425,-0.074
KIF22_Q14807_508_ENHCPTMLRPLSHR (UniProt Q14807),-0.0544,-0.152
KDM3B_Q7LBC6_569_QSLESLSSGLCK (UniProt Q7LBC6),-0.273,-0.616
KIF14_Q15058_850_YKPNSSHDIQLSGVLIADDHCTIK (UniProt Q15058),0.287,0.27
KARS_Q15046_209_GELSIIPYEITLLSPCLHMLPHLHFGLK (UniProt Q15046),0.089,0.146
ITPRID2_P28290_887_TLSTHSVPNISGATCSAFASPFGCPYSHR (UniProt P28290),-0.187,-0.948
KBTBD11_O94819_99_ACPEEPAAPSPEPR (UniProt O94819),-0.122,0.114
KIF13B_Q9NQT8_773_DLYQEWKECEEDNPVIR (UniProt Q9NQT8),-0.183,-0.526
ITPR2_Q14571_2087_NAYNQGLECDHGDDEGGDDGVSPK (UniProt Q14571),-0.133,-0.122
KIAA0391_O15091_367_TIESIQLSPEEYECLK (UniProt O15091),0.00631,-0.562
IVNS1ABP_Q9Y6Y0_52_AVLACCSPYLFEIFNSDSDPHGISHVK (UniProt Q9Y6Y0),0.318,0.0698
IVNS1ABP_Q9Y6Y0_32_SGQFCDVR (UniProt Q9Y6Y0),-0.0224,-0.0322
KDSR_Q06136_121_LGPVDMLVNCAGMAVSGK (UniProt Q06136),0.149,0.0187

Target,probe-labelled cysteine peptide fold change (10 µM),probe-labelled cysteine peptide fold change (50 µM)
KDM3A_Q9Y4C1_814_PACPASTSPLNWLADLTSGNVNK (UniProt Q9Y4C1),-0.145,-0.459
KDM3B_Q7LBC6_1034_EMCDVCETTLFNIHWVCR (UniProt Q7LBC6),0.0856,-0.139
KDM3A_Q9Y4C1_497_VDNESCCSR (UniProt Q9Y4C1),0.275,0.0699
KAT2A_Q92830_815_EYNPPDSEYCR (UniProt Q92830),-0.143,0.554
KAT2A_Q92830_695_VYPGLSCFK (UniProt Q92830),-0.151,-0.549
ITPR1_Q14643_638_FLDYLSDLCVSMNK (UniProt Q14643),0.0654,-0.0946
KANSL3_Q9P2N6_161_LANEGACNEPVLR (UniProt Q9P2N6),-0.241,-0.44
KDM2B_Q8NHM5_770_SECEEAPR (UniProt Q8NHM5),0.188,0.147
KIAA0753_Q2KHM9_745_QLDDFLEDCASELWAVTHAK (UniProt Q2KHM9),-0.172,-0.0839
ITPR1_Q14643_1424_VVTHEDCIPEVK (UniProt Q14643),0.131,0.146
KDM5C_P41229_376_CVMAECK (UniProt P41229),-0.182,-0.398
KDM3A_Q9Y4C1_947_RPQGLTIKPSILGFDTPHYWLCDNR (UniProt Q9Y4C1),0.131,-0.0916
KBTBD11_O94819_384_PSDQVFCYNPATDSWSAVRPLR (UniProt O94819),0.185,0.261
KIDINS220_Q9ULH0_779_LVVIIDGLDACEQDK (UniProt Q9ULH0),-0.272,-0.123
JAK2_O60674_961_LLQYTSQICK (UniProt O60674),-0.135,0.0113
KAT2B_Q92831_100_LGVYSACK (UniProt Q92831),0.153,-0.0935
KIF20B_Q96Q89-3_672_VETEEATACLELK (UniProt Q96Q89),-0.171,-0.134
KBTBD11_O94819_329_GDAAVYCFHAAAGEWR (UniProt O94819),0.258,0.188
KAT7_O95251_418_IYCQNLCLLAK (UniProt O95251),0.0698,0.106

# Reprinted from the results shown (9 entries):
Target,probe-labelled cysteine peptide fold change (10 µM),probe-labelled cysteine peptide fold change (50 µM)
KDM3A_Q9Y4C1_814_PACPASTSPLNWLADLTSGNVNK (UniProt Q9Y4C1),-0.145,-0.459
KDM3B_Q7LBC6_1034_EMCDVCETTLFNIHWVCR (UniProt Q7LBC6),0.0856,-0.139
KDM3A_Q9Y4C1_497_VDNESCCSR (UniProt Q9Y4C1),0.275,0.0699
KAT2A_Q92830_815_EYNPPDSEYCR (UniProt Q92830),-0.143,0.554
KAT2A_Q92830_695_VYPGLSCFK (UniProt Q92830),-0.151,-0.549
ITPR1_Q14643_638_FLDYLSDLCVSMNK (UniProt Q14643),0.0654,-0.0946
KANSL3_Q9P2N6_161_LANEGACNEPVLR (UniProt Q9P2N6),-0.241,-0.44
KDM2B_Q8NHM5_770_SECEEAPR (UniProt Q8NHM5),0.188,0.147
KIAA0753_Q2KHM9_745_QLDDFLEDCASELWAVTHAK (UniProt Q2KHM9),-0.172,-0.0839
